Reference: patent US9624288B2, “Engineered receptors and their use” (University of Pittsburgh—Of the Commonwealth System of …, priority 2012, dated 2017)

Assay: In vivo expression of EG assessed by co-expressed eGFP fluorescence
Conditions: after vector injection into the rat hind paw; listed as EG

B1: EG channel: ELIC extracellular domain fused to human GlyR α1 transmembrane domain; amine-gated Cl- channel, delivered as expression plasmid in vivo (protein)
chain: MGLRALMLWLLAAAGLVRESLQAPADNAADARPVDVSVSIFINKIYGVNTLEQTYKVDGYIVAQWTGKPRKTPGDKPLIVENTQIERWINNGLWVPALEFINVVGSPDTGNKRLMLFPDGRVIYNARFLGSFSNDMDFRLFPFDRQQFVLELEPFSYNNQQLRFSDIQVYTENIDNEEIDEWWIRGKASTHISDIRYDHLSSVQPNQNEFSRITVRIDAVRQMGYYLIQMYIPSLLIVILSWISFWINMDAAPARVGLGITTVLTMTTQSSGSRASLPKVSYVKAIDIWMAVCLLFVFSALLEYAAVNFVSRSQPARAAKIDKISRIGFPMAFLIFNMFYWIRGITL
modifications: Engineered Chloride Channel Receptor
notes: ELIC extracellular domain fused to human GlyR α1 transmembrane domain; amine-gated Cl- channel, delivered as expression plasmid in vivo
Question: For B1, which “EG expression (eGFP fluorescence)” value is on record?
Answer: The value was “lasted for over six weeks; also recorded: robust”.

“Also recorded” adds a separate entry of the source.
